According to patent US6028061A, “Angiogenesis inhibitors and use thereof” (Children's Medical Center Corp, priority 1998, dated 2000):

System: FGF-2
Experiment: Isothermal titration calorimetry of glycosaminoglycan binding to FGF-2
Settings: for ΔH: 50 mM sodium phosphate pH 7.4, 100 mM NaCl, 25° C; for avg. binding site size (size of oligosaccharide occupied by a single FGF2 molecule): 2(MW/disaccharide unit mass)/n
Procedure: Interaction of glycosaminoglycans and their derivatives with FGF-2. Isothermal titration calorimetry was performed in 50 mM sodium phosphate buffer, pH 7.4, containing 100 mM sodium chloride at 25° C. as previously described (15).
Determination of the FGF-2 binding affinity of glycosaminoglycans and their derivatives. Isothermal titration calorimetry was performed with heparin oligosaccharides, herapin, acharan sulfate and N-sulfoacharan sulfate. The heat of interaction (ΔH) is directly measured in this experiment. From this heat of interaction the Kd, and n (stoichiometry) of interaction can be deduced. The minimum FGF-2 binding site is a tetra- or hexasaccharide. […] The n value is consistent with the molecular weight of each ligand (Table 2).

Row | Substance | ΔH [kcal/mol] | avg. binding site size (size of oligosaccharide occupied by a single FGF2 molecule)
1 | Low molecular weight heparin [reference compound] | -13.4 | tetrasaccharide
2 | →4)GlcNp2S(1→4)IdoAp2S(1→ [N-sulfoacharan sulfate] | -15.4 | hexasacchar
3 | →4)GlcNpAc(1→4)IdoAp2S(1→ [Acharan sulfate] | -15.1 | octasaccharid
